{"source": "PubChem BioAssay AID652243 (Drosophila RNAi Screening Center, 2013)", "test": "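Knock-downs that decrease or increase androgen receptor reporter signal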 (primary screen)", "cell system": "Drosophila S2R+ cells", "reagent": "long dsRNA against Drosophila genes", "time to read-out": "72 h (48 h, then 24 h hormone)", "treatment": "synthetic androgen R1881 at 10 nM for 24 h", "read-out": "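Firefly light from an androgen-responsive reporter and Renilla control light per well, raw and unnormalised, for each of two replicates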", "direction": "firefly reporter light: higher = more light from androgen-responsive reporter; Renilla control light: higher = more constitutive control signal (cell number, transfection)", "hit rule": "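Hit when the log firefly-to-Renilla ratio dropped or increased by a fixed fold versus the mean of GFP or LacZ controls across duplicate plates; lowering cut given as 1.5 and as 3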", "meaning of the calls": "active = hit: reporter lowered or raised; inactive = no hit", "note": "The deposit covers about 24,000 reagents; this is an unselected part of those with a known target gene and a result. In the full data, 246 (1%) got an active call. 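Plates not normalised; calls are printed but the firefly/Renilla ratio behind them is not deposited; fold cut for lowering reported inconsistently.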 The raw values are shown without normalisation. Names joined by + are all predicted targets of the reagent. No sequences are given here. The record does not give: the amount of reagent."}
{"predicted target": "CG3999", "DRSC id": "DRSC15534", "firefly reporter light, replicate 1": 1.56e5, "firefly reporter light, replicate 2": 1.43e5, "Renilla control light, replicate 1": 2.08e6, "Renilla control light, replicate 2": 2.22e6, "Outcome": "inactive"}
{"predicted target": "CG3999", "DRSC id": "DRSC29444", "firefly reporter light, replicate 1": 4.86e5, "firefly reporter light, replicate 2": 3.18e5, "Renilla control light, replicate 1": 1.07e6, "Renilla control light, replicate 2": 1.07e6, "Outcome": "inactive"}
{"predicted target": "CG8635", "DRSC id": "DRSC07226", "firefly reporter light, replicate 1": 1.09e6, "firefly reporter light, replicate 2": 1.18e6, "Renilla control light, replicate 1": 8.75e5, "Renilla control light, replicate 2": 1.08e6, "Outcome": "active"}
{"predicted target": "CG8635", "DRSC id": "DRSC29143", "firefly reporter light, replicate 1": 4.20e5, "firefly reporter light, replicate 2": 4.54e5, "Renilla control light, replicate 1": 1.76e6, "Renilla control light, replicate 2": 1.60e6, "Outcome": "active"}
{"predicted target": "wrm1 + wrm2", "DRSC id": "DRSC11007", "firefly reporter light, replicate 1": 2.33e5, "firefly reporter light, replicate 2": 1.44e5, "Renilla control light, replicate 1": 8.06e5, "Renilla control light, replicate 2": 6.61e5, "Outcome": "inactive"}
{"predicted target": "wrm1 + wrm2", "DRSC id": "DRSC24006", "firefly reporter light, replicate 1": 9.03e5, "firefly reporter light, replicate 2": 1.16e6, "Renilla control light, replicate 1": 8.36e5, "Renilla control light, replicate 2": 8.25e5, "Outcome": "inactive"}
{"predicted target": "CG15169", "DRSC id": "DRSC02470", "firefly reporter light, replicate 1": 98656, "firefly reporter light, replicate 2": 1.33e5, "Renilla control light, replicate 1": 8.24e5, "Renilla control light, replicate 2": 1.21e6, "Outcome": "inactive"}
{"predicted target": "mtSSB", "DRSC id": "DRSC17005", "firefly reporter light, replicate 1": 2.26e5, "firefly reporter light, replicate 2": 2.12e5, "Renilla control light, replicate 1": 2.75e6, "Renilla control light, replicate 2": 2.95e6, "Outcome": "inactive"}
{"predicted target": "CG10340", "DRSC id": "DRSC14232", "firefly reporter light, replicate 1": 83273, "firefly reporter light, replicate 2": 61866, "Renilla control light, replicate 1": 3.08e5, "Renilla control light, replicate 2": 5.12e5, "Outcome": "inactive"}
{"predicted target": "Gr93c", "DRSC id": "DRSC14587", "firefly reporter light, replicate 1": 2.46e5, "firefly reporter light, replicate 2": 2.19e5, "Renilla control light, replicate 1": 3.40e6, "Renilla control light, replicate 2": 3.03e6, "Outcome": "inactive"}
{"predicted target": "BomT2", "DRSC id": "DRSC06631", "firefly reporter light, replicate 1": 1.54e5, "firefly reporter light, replicate 2": 1.33e5, "Renilla control light, replicate 1": 3.36e6, "Renilla control light, replicate 2": 3.36e6, "Outcome": "inactive"}
{"predicted target": "CG15263", "DRSC id": "DRSC01974", "firefly reporter light, replicate 1": 6.88e5, "firefly reporter light, replicate 2": 8.49e5, "Renilla control light, replicate 1": 1.83e6, "Renilla control light, replicate 2": 1.82e6, "Outcome": "inactive"}
{"predicted target": "CG15263", "DRSC id": "DRSC27309", "firefly reporter light, replicate 1": 2.72e5, "firefly reporter light, replicate 2": 2.43e5, "Renilla control light, replicate 1": 6.37e5, "Renilla control light, replicate 2": 5.76e5, "Outcome": "inactive"}
